These are yes or no findings as the source states them, for the method shown. In cells and extracts the contact can be indirect. Here binding means that the protein was enriched with, or labelled near, the bait; the list need not be complete. Sequences can lack the tags named with a protein.

Sequences of proteins named here, by UniProt entry; tags and fusion partners are left off.
UniProt P51149: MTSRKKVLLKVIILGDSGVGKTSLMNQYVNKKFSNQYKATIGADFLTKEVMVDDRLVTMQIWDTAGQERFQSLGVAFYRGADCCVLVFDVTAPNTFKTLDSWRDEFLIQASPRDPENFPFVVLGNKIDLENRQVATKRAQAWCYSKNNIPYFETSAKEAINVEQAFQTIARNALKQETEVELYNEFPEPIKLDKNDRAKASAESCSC
UniProt Q9NP72: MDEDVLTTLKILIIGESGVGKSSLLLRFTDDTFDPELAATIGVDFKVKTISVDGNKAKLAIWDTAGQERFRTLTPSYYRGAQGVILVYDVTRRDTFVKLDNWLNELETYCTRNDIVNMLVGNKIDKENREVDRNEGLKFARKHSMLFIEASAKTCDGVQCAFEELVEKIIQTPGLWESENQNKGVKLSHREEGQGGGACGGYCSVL
UniProt P62820: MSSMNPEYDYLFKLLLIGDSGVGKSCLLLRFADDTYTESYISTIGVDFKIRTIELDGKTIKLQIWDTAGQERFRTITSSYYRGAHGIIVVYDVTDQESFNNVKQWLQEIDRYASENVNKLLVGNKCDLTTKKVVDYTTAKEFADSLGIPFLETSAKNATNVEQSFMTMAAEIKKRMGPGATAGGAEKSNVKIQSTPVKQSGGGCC

For experiment [1], the target named is T1, MBOAT7-EGFP (human) (UniProt Q96N66).
T1 sequence: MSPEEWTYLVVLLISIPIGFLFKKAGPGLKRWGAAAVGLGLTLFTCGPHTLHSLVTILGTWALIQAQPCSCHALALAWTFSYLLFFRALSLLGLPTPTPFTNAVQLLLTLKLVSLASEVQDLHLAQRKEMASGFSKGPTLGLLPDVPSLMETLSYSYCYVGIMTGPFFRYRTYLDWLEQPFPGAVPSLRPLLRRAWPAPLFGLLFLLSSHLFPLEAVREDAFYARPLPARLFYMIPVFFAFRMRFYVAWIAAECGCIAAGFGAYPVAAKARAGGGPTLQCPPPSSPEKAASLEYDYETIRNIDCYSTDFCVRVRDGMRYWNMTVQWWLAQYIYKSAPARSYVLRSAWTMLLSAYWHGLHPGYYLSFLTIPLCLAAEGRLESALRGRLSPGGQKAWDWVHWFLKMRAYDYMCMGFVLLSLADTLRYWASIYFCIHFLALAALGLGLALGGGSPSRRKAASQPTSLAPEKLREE
The experiment in a line: affinity purification with mass spectrometry.

Experiment [2] concerns the target T2, APEX2-CDS2 fusion protein (UniProt O95674).
T2 sequence: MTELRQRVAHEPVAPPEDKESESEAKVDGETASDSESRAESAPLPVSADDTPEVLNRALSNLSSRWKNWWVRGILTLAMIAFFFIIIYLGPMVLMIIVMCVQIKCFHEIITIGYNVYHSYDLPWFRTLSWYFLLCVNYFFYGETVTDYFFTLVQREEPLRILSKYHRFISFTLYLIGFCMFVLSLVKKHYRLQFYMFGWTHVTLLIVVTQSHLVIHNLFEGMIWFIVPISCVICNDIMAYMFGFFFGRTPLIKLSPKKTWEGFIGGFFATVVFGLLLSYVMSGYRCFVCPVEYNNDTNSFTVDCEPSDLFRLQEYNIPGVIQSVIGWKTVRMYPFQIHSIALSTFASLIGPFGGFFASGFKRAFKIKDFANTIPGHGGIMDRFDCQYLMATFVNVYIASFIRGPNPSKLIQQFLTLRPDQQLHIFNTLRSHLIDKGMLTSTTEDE
Kind of experiment: proximity labelling.

As to RAB7A (from UniProt P51149 1-207), in experiment [1], the binding result is reported as “binds”.

Turning to RAB18 (from UniProt Q9NP72 1-206), the binding entry in experiment [1] was “binds”.

On to RAB1A (from UniProt P62820 1-205), for which, in experiment [1], the binding entry is on record as “binds”.

B1: MBOAT7 (in the CDS2 proximal proteome) (protein, UniProt Q96N66 1-472)
chain: MSPEEWTYLVVLLISIPIGFLFKKAGPGLKRWGAAAVGLGLTLFTCGPHTLHSLVTILGTWALIQAQPCSCHALALAWTFSYLLFFRALSLLGLPTPTPFTNAVQLLLTLKLVSLASEVQDLHLAQRKEMASGFSKGPTLGLLPDVPSLMETLSYSYCYVGIMTGPFFRYRTYLDWLEQPFPGAVPSLRPLLRRAWPAPLFGLLFLLSSHLFPLEAVREDAFYARPLPARLFYMIPVFFAFRMRFYVAWIAAECGCIAAGFGAYPVAAKARAGGGPTLQCPPPSSPEKAASLEYDYETIRNIDCYSTDFCVRVRDGMRYWNMTVQWWLAQYIYKSAPARSYVLRSAWTMLLSAYWHGLHPGYYLSFLTIPLCLAAEGRLESALRGRLSPGGQKAWDWVHWFLKMRAYDYMCMGFVLLSLADTLRYWASIYFCIHFLALAALGLGLALGGGSPSRRKAASQPTSLAPEKLREE
For B1, in experiment [2], the binding result is reported as “binds”.

Source of the values: paper doi:10.1101/2025.08.26.672501.
